These results are taken from patent US11185594B2 (DAIICHI SANKYO COMPANY, LIMITED, priority 2014, dated 2021).

The nature of the first series: general procedure: solution-phase peptide synthesis; 1-ethyl-3-(3-dimethylaminopropyl)carbodiimide hydrochloride / 1-hydroxybenzotria. The note with it: conjugation step.
In turn, “N-[(9H-Fluoren-9-ylmethoxy)carbonyl]glycylglycyl-N-(4-{[(1S,9S)-9-ethyl-5-fluoro-9-hydroxy-4-methyl-10,13-dioxo-2,3,9,10,13,15-hexahydro-1H,12H-benzo[de]pyrano[3′,4′:6,7]indolizino[1,2-b]quinolin-1-yl]amino}-4-oxobutyl)-L-phenylalaninamide” showed a conjugation yield of 40%. Still for that read-out and setting: for “N-(tert-Butoxycarbonyl)glycylglycyl-L-phenylalanyl-N-(4-{[(1S,9S)-9-ethyl-5-fluoro-9-hydroxy-4-methyl-10,13-dioxo-2,3,9,10,13,15-hexahydro-1H,12H-benzo[de]pyrano[3′,4′:6,7]indolizino[1,2-b]quinolin-1-yl]amino}-4-oxobutyl)glycinamide” the value was 73%. Regarding “N-(tert-Butoxycarbonyl)-L-serylglycylglycyl-L-phenylalanyl-N-[(1S,9S)-9-ethyl-5-fluoro-9-hydroxy-4-methyl-10,13-dioxo-2,3,9,10,13,15-hexahydro-1H,12H-benzo[de]pyrano[3′,4′:6,7]indolizino[1,2-b]quinolin-1-yl]glycinamide”, the conjugation yield turned out to be 82%. On the same count and under the same terms, for “N-[6-(2,5-Dioxo-2,5-dihydro-1H-pyrrol-1-yl)hexanoyl]glycylglycyl-L-phenylalanyl-N-[(1S,9S)-9-ethyl-5-fluoro-9-hydroxy-4-methyl-10,13-dioxo-2,3,9,10,13,15-hexahydro-1H,12H-benzo[de]pyrano[3′,4′:6,7]indolizino[1,2-b]quinolin-1-yl]glycinamide” the value was 37%; for “N-(tert-Butoxycarbonyl)glycylglycyl-L-phenylalanyl-N-(5-{[(1S,9S)-9-ethyl-5-fluoro-9-hydroxy-4-methyl-10,13-dioxo-2,3,9,10,13,15-hexahydro-1H,12H-benzo[de]pyrano[3′,4′:6,7]indolizino[1,2-b]quinolin-1-yl]amino}-5-oxopentyl)glycinamide”, 84%.

“N-(tert-Butoxycarbonyl)glycylglycyl-L-phenylalanylglycyl-N-[(1S,9S)-9-ethyl-5-fluoro-9-hydroxy-4-methyl-10,13-dioxo-2,3,9,10,13,15-hexahydro-1H,12H-benzo[de]pyrano[3′,4′:6,7]indolizino[1,2-b]quinolin-1-yl]-β-alaninamide” registered a conjugation yield of 87%.

The series is the same for the next values; noted with them: coupling step.
Take “Ethyl N-(tert-butoxycarbonyl)glycylglycyl-L-phenylalanylglycinate”: the step yield was 82%. On the same count and under the same terms, under “N-(tert-Butoxycarbonyl)glycylglycyl-L-phenylalanylglycylglycylglycylphenylalanyl-N-[(1S,9S)-9-ethyl-5-fluoro-9-hydroxy-4-methyl-10,13-dioxo-2,3,9,10,13,15-hexahydro-1H,12H-yl]glycinamide” stands 66%; under “Ethyl N-(tert-butoxycarbonyl)-L-serylglycylglycyl-L-phenylalanyl glycinate”, 58%. The same measure, in the same setting: under “tert-Butyl (9S,18S)-9-benzyl-1-{[(1S,9S)-9-ethyl-5-fluoro-9-hydroxy-4-methyl-10,13-dioxo-2,3,9,10,13,15-hexahydro-1H,12H-benzo[de]pyrano[3′,4′:6,7]indolizino[1,2-b]quinolin-1-yl]amino}-18-{[(9H-fluoren-9-ylmethoxy)carbonyl]amino}-1,5,8,11,14” stands 38%; under “Glycylglycyl-L-phenylalanyl-O-tert-butyl-N-[(1S,9S)-9-ethyl-5-fluoro-9-hydroxy-4-methyl-10,13-dioxo-2,3,9,10,13,15-hexahydro-1H,12H-yl]-L-serinamide”, 49%.

“tert-Butyl (3S,6S,15S)-15-benzyl-6-(2-tert-butoxy-2-oxoethyl)-24-{[(1S,9S)-9-ethyl-5-fluoro-9-hydroxy-4-methyl-10,13-dioxo-2,3,9,10,13,15-hexahydro-1H,12H-benzo[de]pyrano[3′,4′:6,7]indolizino[1,2-b]quinolin-1-yl]amino}” returned a step yield of 72%. The substance “β-Alanylglycylglycyl-L-phenylalanyl-N-(4-{[(1S,9S)-9-ethyl-5-fluoro-9-hydroxy-4-methyl-10,13-dioxo-2,3,9,10,13,15-hexahydro-1H,12H-benzo[de]pyrano[3′,4′:6,7]indolizino[1,2-b]quinolin-1-yl]amino}-4-oxobutyl)glycinamide” gave a step yield of 67%.

Staying with this series, now noted: coupling step, 3 steps.
Take “Benzyl (5S,14S)-14-benzyl-5-(2-tert-butoxy-2-oxoethyl)-1-(9H-fluoren-9-yl)-7-methyl-3,6,9,12-tetraoxo-2-oxa-4,7,10,13-tetraazapantadecan-15-oate”: the step yield is on record as 87%, 3 steps.

The same series, now with this note: late stage modification step.
Take “N-(2-Aminoethyl)-N-(carboxymethyl)glycylglycyl-L-phenylalanyl-N-(4-{[(1S,9S)-9-ethyl-5-fluoro-9-hydroxy-4-methyl-10,13-dioxo-2,3,9,10,13,15-hexahydro-1H,12H-benzo[de]pyrano[3′,4′:6,7]indolizino[1,2-b]quinolin-1-yl]amino}-4-oxobutyl)glycinamide”: the step yield was determined as 67%.

With “N-(3-Sulfanylpropanoyl)glycylglycyl-L-phenylalanyl-N-(4-{[(1S,9S)-9-ethyl-5-fluoro-9-hydroxy-4-methyl-10,13-dioxo-2,3,9,10,13,15-hexahydro-1H,12H-benzo[de]pyrano[3′,4′:6,7]indolizino[1,2-b]quinolin-1-yl]amino}-4-oxobutyl)glycinamide”, the step yield came out at 66%. Still for that read-out and setting: for “N-(2-Aminoethyl)-N-(carboxymethyl)glycylglycylglycyl-L-phenylalanyl-N-[(1S,9S)-9-ethyl-5-fluoro-9-hydroxy-4-methyl-10,13-dioxo-2,3,9,10,13,15-hexahydro-1H,12H-yl]glycinamide” the value was 58%; for “Glycylglycyl-L-phenylalanylglycylglycylglycylphenylalanyl-N-[(1S,9S)-9-ethyl-5-fluoro-9-hydroxy-4-methyl-10,13-dioxo-2,3,9,10,13,15-hexahydro-1H,12H-benzo[de]pyrano[3′,4′:6,7]indolizino[1,2-b]quinolin-1-yl]glycinamide”, 66%; for “N-[6-(2,5-Dioxo-2,5-dihydro-1H-pyrrol-1-yl)hexanoyl]-L-α-aspartyl-N-methylglycylglycyl-L-phenylalanyl-N-[(1S,9S)-9-ethyl-5-fluoro-9-hydroxy-4-methyl-10,13-dioxo-2,3,9,10,13,15-hexahydro-1H,12H-benzo[de]pyrano[3′,4′:6,7]indolizino[1,2-b]quinolin-1-yl]glycinamide”, 13%.

Take “tert-Butyl (3S,12S)-3-amino-12-benzyl-21-{[(1S,9S)-9-ethyl-5-fluoro-9-hydroxy-4-methyl-10,13-dioxo-2,3,9,10,13,15-hexahydro-1H,12H-benzo[de]pyrano[3′,4′:6,7]indolizino[1,2-b]quinolin-1-yl]amino}-4,7,10,13,16,21-hexaoxo-5,8,11,14,17-pentaazaheneicosan-1-oate”: the step yield turned out to be 85%. Same read-out and setting: under “tert-Butyl (5S,14S)-14-amino-5-benzyl-1-{[(1S,9S)-9-ethyl-5-fluoro-9-hydroxy-4-methyl-10,13-dioxo-2,3,9,10,13,15-hexahydro-1H,12H-benzo[de]pyrano[3′,4′:6,7]indolizino[1,2-b]quinolin-1-yl]amino}-12-methyl-1,4,7,10,13-pentaoxo-3,6,9,12-tetraazapentadecan-16-oate” stands 83%. Same read-out and setting: under “N-{8-[(2,5-Dioxopyrrolidin-1-yl)oxy]-8-oxoocatnoyl}glycylglycyl-L-phenylalanyl-N-(4-{[(1S,9S)-9-ethyl-5-fluoro-9-hydroxy-4-methyl-10,13-dioxo-2,3,9,10,13,15-hexahydro-1H,12H-benzo[de]pyrano[3′,4′:6,7]indolizino[1,2-b]quinolin-1-yl]amino}-4-oxobutyl)glycinamide” stands 71%; under “N^6-(tert-Butoxycarbonyl)-L-lysylglycylglycyl-L-phenylalanyl-N-[(1S,9S)-9-ethyl-5-fluoro-9-hydroxy-4-methyl-10,13-dioxo-2,3,9,10,13,15-hexahydro-1H,12H-benzo[de]pyrano[3′,4′:6,7]indolizino[1,2-b]quinolin-1-yl]glycinamide”, 71%.

Still in this series, the particulars now being: late stage modification step, trifluoroacetic acid salt.
On to “L-Serylglycylglycyl-L-phenylalanyl-N-[(1S,9S)-9-ethyl-5-fluoro-9-hydroxy-4-methyl-10,13-dioxo-2,3,9,10,13,15-hexahydro-1H,12H-benzo[de]pyrano[3′,4′:6,7]indolizino[1,2-b]quinolin-1-yl]glycinamide”, for which the step yield was found to be 91%.

Turning to “N^2-[6-(2,5-Dioxo-2,5-dihydro-1H-pyrrol-1-yl)hexanoyl]-L-lysylglycylglycyl-L-phenylalanyl-N-[(1S,9S)-9-ethyl-5-fluoro-9-hydroxy-4-methyl-10,13-dioxo-2,3,9,10,13,15-hexahydro-1H,12H-benzo[de]pyrano[3′,4′:6,7]indolizino[1,2-b]quinolin-1-yl]gl”, the step yield was found to be 78%. For “Glycylglycyl-L-phenylalanyl-N-(5-{[(1S,9S)-9-ethyl-5-fluoro-9-hydroxy-10,13-dioxo-2,3,9,10,13,15-hexahydro-1H,12H-benzo[de]pyrano[3′,4′:6,7]indolizino[1,2-b]quinolin-1-yl]amino}-5-oxopentyl)glycinamide”, the step yield came out at 99%. Same read-out and setting: under “Glycylglycyl-L-phenylalanyl-N-(4-{[(1S,9S)-9-ethyl-5-fluoro-9-hydroxy-4-methyl-10,13-dioxo-2,3,9,10,13,15-hexahydro-1H,12H-benzo[de]pyrano[3′,4′:6,7]indolizino[1,2-b]quinolin-1-yl]amino}-4-oxobutyl)glycinamide” stands 99%; under “Glycylglycyl-L-phenylalanylglycyl-N-[(1S,9S)-9-ethyl-5-fluoro-9-hydroxy-4-methyl-10,13-dioxo-2,3,9,10,13,15-hexahydro-1H,12H-benzo[de]pyrano[3′,4′:6,7]indolizino[1,2-b]quinolin-1-yl]-β-alaninamide trifluoroacetic acid salt”, 92%.
